# Experimental data reported in patent US20240279622A1, “COELENTERAZINE-UTILIZING LUCIFERASES WITH STABLE GLOW-TYPE LIGHT EMISSION AND METHODS OF PRODUCING AND USING THEREOF” (MASARYKOVA UNIVERZITA, priority 2021, published 2024).
# Tests used:
# [1] = Bioluminescence emission spectrum, peak maximum wavelength; type: biochemical; details: 100 mM potassium phosphate buffer pH 7.5, ambient temperature
# Procedure: Bioluminescence emission spectra were measured at ambient temperature using the spectrofluorometer FluoroMax-4 (HORIBA, Japan). 1 mL of an enzyme solution in 100 mM potassium phosphate buffer pH 7.5 was added into a quartz cuvette and the enzymatic reaction was initiated by manual injection of 50 μL of ethanolic solution of coelenterazine followed by a quick mixing. The acquisition of luminescence emission spectra started after 10 seconds from the addition of the coelenterazine substrate. The resulting concentration of an enzyme in the reaction mixture ranged from 0.7 to 1.0 μM while the concentration of coelenterazine was approximately 30 μM. The data were collected for wavelengths from 350 to 700 nm with a step of 2 nm and each spectrum was measured in triplicates. The obtained spectrum was normalized relative to the value of the highest peak for each of the enzymes individually and the shape and positions of the luminescence emission peaks were compared.
# [2] = literature values; cited from earlier work
Molecule,Peak maximum wavelength (λmax) [1],Emission spectrum peak maximum [2]
"AncFT-D160A: AncFT carrying the single-point D160A mutation; blue-shifted emission (protein, Amino acid sequence of AncFT-D160A, AncFT carrying the single-point D160A mutation; blue-shifted emission) MVSASQRTTSTATGDEWWAKCKQVDVLDSEMSYYDSDPGKHKNTVIFLHGNPTSSYLWRNVIPHVEPLARCLAPDLIGMGKSGKLPNHSYRFVDHYRYLSAWFDSVNLPEKVTIVCHDWGSGLGFHWCNEHRDRVKGIVHMESVVDVIESWDEWPDIEEAIALIKSEAGEEMVLKKNFFIERLLPSSIMRKLSEEEMDAYREPFVEPGESRRPTLTWPREIPIKGDGPEDVIEIVKSYNKWLSTSKDIPKLFINADPGFFSNAIKKVTKNWPNQKTVTVKGLHFLQEDSPEEIGEAIADFLNELTK",390 nm,
"RLuc8: Eight-point mutant of RLuc (A55T, C124A, S130A, K136R, A143M, M185V, M253L, and S287L) (protein, RLuc8) MTSKVYDPEQRKRMITGPQWWARCKQMNVLDSFINYYDSEKHAENAVIFLHGNATSSYLWRHVVPHIEPVARCIIPDLIGMGKSGKSGNGSYRLLDHYKYLTAWFELLNLPKKIIFVGHDWGAALAFHYAYEHQDRIKAIVHMESVVDVIESWDEWPDIEEDIALIKSEEGEKMVLENNFFVETVLPSKIMRKLEPEEFAAYLEPFKEKGEVRRPTLSWPREIPLVKGGKPDVVQIVRNYNAYLRASDDLPKLFIESDPGFFSNAIVEGAKKFPNTEFVKVKGLHFLQEDAPDEMGKYIKSFVERVLKNEQ",478 nm,487 nm
"RLuc: Luciferase isolated from the sea pansy Renilla reniformis (protein, RLuc) MTSKVYDPEQRKRMITGPQWWARCKQMNVLDSFINYYDSEKHAENAVIFLHGNAASSYLWRHVVPHIEPVARCIIPDLIGMGKSGKSGNGSYRLLDHYKYLTAWFELLNLPKKIIFVGHDWGACLAFHYSYEHQDKIKAIVHAESVVDVIESWDEWPDIEEDIALIKSEEGEKMVLENNFFVETMLPSKIMRKLEPEEFAAYLEPFKEKGEVRRPTLSWPREIPLVKGGKPDVVQIVRNYNAYLRASDDLPKMFIESDPGFFSNAIVEGAKKFPNTEFVKVKGLHFSQEDAPDEMGKYIKSFVERVLKNEQ",470 nm,482 nm
"AncFT-L14: AncFT with additionally transplanted L14 loop (LVKGGKP at positions 223 to 229) from RLuc (protein, Amino acid sequence of AncFT-L14, AncFT with additionally transplanted L14 loop (LVKGGKP at positions 223 to 229) from RLuc) MVSASQRTTSTATGDEWWAKCKQVDVLDSEMSYYDSDPGKHKNTVIFLHGNPTSSYLWRNVIPHVEPLARCLAPDLIGMGKSGKLPNHSYRFVDHYRYLSAWFDSVNLPEKVTIVCHDWGSGLGFHWCNEHRDRVKGIVHMESVVDVIESWDEWPDIEEDIALIKSEAGEEMVLKKNFFIERLLPSSIMRKLSEEEMDAYREPFVEPGESRRPTLTWPREIPLVKGGKPDVIEIVKSYNKWLSTSKDIPKLFINADPGFFSNAIKKVTKNWPNQKTVTVKGLHFLQEDSPEEIGEAIADFLNELTK",456 nm,
"Super RLuc8: Recently reported RLuc8 enzyme variant (Rahnama et el., 2017) (protein, Super RLuc8) MTSKVYDPEQRKRMITGPQWWARCKQMNVLDSFINYYDSEKHAENAVIFLHGNATSSYLWRHVVPHIEPVARCIIPDLIGMGKSGKSGNGSYRLLDHYKYLTAWFELLNLPKKIIFVGHDWGSALAFHYAYEHQDRIKAIVHMESVVDVIESWKNWPDIEEELALIKSEEGEKMVLENNFFVETVLPSVIMRKLEPEEFAAYLEPFKEKGEVRRPTLSWPREIPLVKGGKPDVVQIVRNYNAYLRASDDLPKLFIESDPGWFSNAIIEGAKKFPNTEFVKVKGLHFLQEDAPDEMGKYIKSFVERVLKNEQ",540 nm,
"AncFT: Ancestral protein AncHLD-RLuc with the L9-α4 region transplanted from RLuc; glow-type coelenterazine-utilizing luciferase (protein, Amino acid sequence of AncFT) MVSASQRTTSTATGDEWWAKCKQVDVLDSEMSYYDSDPGKHKNTVIFLHGNPTSSYLWRNVIPHVEPLARCLAPDLIGMGKSGKLPNHSYRFVDHYRYLSAWFDSVNLPEKVTIVCHDWGSGLGFHWCNEHRDRVKGIVHMESVVDVIESWDEWPDIEEDIALIKSEAGEEMVLKKNFFIERLLPSSIMRKLSEEEMDAYREPFVEPGESRRPTLTWPREIPIKGDGPEDVIEIVKSYNKWLSTSKDIPKLFINADPGFFSNAIKKVTKNWPNQKTVTVKGLHFLQEDSPEEIGEAIADFLNELTK",454 nm,
